# Measurements from PubChem BioAssay AID540276 (National Center for Advancing Translational Sciences (NCATS), 2011).
# Where “and” joins values, the source holds several entries; their conditions need not be identical. Equal values may be shown once. Among all 300,000 compounds or so, about 5,400 (1.8%) were called active. This list was built around the results that the source calls inconclusive (neither active nor inactive); the mix of calls is not that of the screen. Calls come from the whole dose curve; tested in HEK293 cells. Where the call is inconclusive, the potency comes from a doubtful curve fit.
# Assay: qHTS for inhibitors of binding or entry into cells for Marburg Virus
# Details: Marburg virus pseudotyped entry inhibition, cell reporter; series mostly up to 37.8 µM
# Potency is the fitted concentration of half-maximal effect.
row,Compound,Potency
1,CC/C(C)=N/NC(=S)NCc1ccco1,"inconclusive: 31.6 µM [activator, single point]"
2,CCOC(=O)c1ccc(NC(=O)CCOc2ccc(C)cc2)cc1,inactive
3,Cc1ccc(C)c(NC(=S)NNC(=O)c2cc3c(s2)CCC(C)C3)c1 (stereo not given),"inconclusive: 8.91 µM [activator, single point]"
4,CCCc1cc2c(cc1NC(=O)Cc1ccccc1)OCO2,"inconclusive: 3.55 µM [inhibitor, full curve]"
5,CCOc1ccccc1C=NNC(=O)c1cccc2ccccc12,inactive
6,CC(=O)c1ccc(NC(=O)c2cccs2)cc1,inactive
7,CCC(=O)N/C(N)=N/c1nc2ccccc2o1,"inconclusive: 12.6 µM [inhibitor, single point]"
8,CSc1ncc(Cl)c(C(=O)Nc2cc(C(F)(F)F)ccc2Cl)n1,inactive
9,O=C(COC(=O)c1cc([N+](=O)[O-])ccc1NCCO)c1ccccc1,"inconclusive: 2.82 µM [activator, partial curve, poor fit]"
10,CN1CCN(c2nc(-c3ccccc3)cc(C(F)(F)F)n2)CC1,"inconclusive: 7.3 µM [inhibitor, partial curve, poor fit]"
11,O=C(CSC(=S)N1CCSCC1)c1ccccc1,"inconclusive: 11.2 µM [inhibitor, partial curve, poor fit]"
12,Cc1ccc(NC(=O)c2sc(N)nc2-c2ccc([N+](=O)[O-])cc2)c(C)c1,inactive
13,O=C(NNC(=O)C1C2C=CC(C2)C1C(=O)O)c1cc(Cl)ccc1O (stereo not given),inactive
14,COc1ccc(C)cc1N(CC(=O)NCCSCc1cccc(Cl)c1)S(C)(=O)=O,"inconclusive: 35.5 µM [inhibitor, single point]"
15,CC(C)CN1CCN(Cc2nc3ccccc3s2)CC1CCO (stereo not given),"inconclusive: 0.562 µM [activator, full curve, poor fit]"
16,CCCC(=O)Nc1sc2c(c1C#N)CCCC2,inactive
17,O=C(O)CCN1C(=O)/C(=C\c2cccc(Oc3ccccc3)c2)SC1=S,inactive
18,Nc1cc(C(=O)O)ccc1N1CCCCCC1,inactive
19,CCc1cc(C(=O)OC)c(NC(=O)CC2SC(=NC)N(C)C2=O)s1 (stereo not given),inactive
20,COCCn1c(=O)[nH]c2cc(C(=O)N3CCN(c4ccc(Cl)cc4)CC3)ccc2c1=O,"inactive and inconclusive: 22.4 µM [inhibitor, single point]"
21,Cc1ccc(C)c(N2CCN(C(=O)CCCn3c(=S)[nH]c4cc5c(cc4c3=O)OCO5)CC2)c1,"inconclusive: 0.0041 µM [activator, full curve, poor fit]"
22,COc1cccc(C(=O)Nc2nc3ccccc3[nH]2)c1,"inconclusive: 2.51 µM [inhibitor, full curve, poor fit]"
23,Cc1ccc(C)c(NC(=O)CSc2nnc(Cc3cccn3C)n2-c2ccc(F)cc2)c1,"inconclusive: 1.3 µM [inhibitor, single point]"
24,CCC(NC(=O)c1cc(COc2ccc(Cl)cc2OC)on1)c1ccncc1 (stereo not given),"inconclusive: 35.5 µM [inhibitor, single point]"

row,Compound,Potency
1,O=C(Cc1ccc(Cl)cc1)Nc1ncc([N+](=O)[O-])s1,"inconclusive: 17.8 µM [activator, single point]"
2,O=C(CCc1ccccc1)Nc1nc2c(F)cc(F)cc2s1,inactive
3,COc1ccccc1-n1nc(-c2ccccc2)c2cnc3c(F)cc(F)cc3c21,inactive
4,CS(=O)(=O)c1ccc(C(=O)Nc2ccccc2N2CCOCC2)c(Cl)c1,inactive
5,COc1ccc(C(CNC(=O)COc2cc(C)cc(C)c2)N2CCCCC2)cc1 (stereo not given),"inconclusive: 20 µM [inhibitor, partial curve, poor fit]"
6,O=C1NCCN(Cc2ccc(F)cc2)C1CC(=O)N1CC=C(c2ccccc2)CC1 (stereo not given),"inconclusive: 5.62 µM [inhibitor, single point]"
7,CCC1CN(C(=O)Nc2cccc(C)c2)c2cc(C)ccc2O1 (stereo not given),"inconclusive: 3.55 µM [inhibitor, partial curve, poor fit]"
8,COc1cc(OC)cc(C(=O)NCC(=O)NC(C)CCc2ccccc2)c1 (stereo not given),"inconclusive: 1.78 µM [inhibitor, partial curve, poor fit]"
9,O=C(COC(=O)Cc1ccc(Cl)cc1Cl)NC1CC1,"inconclusive: 3.98 µM [inhibitor, single point]"
10,Cc1ccc(NS(=O)(=O)c2cc3c4c(cccc4c2)C(=O)NC3=O)cc1C,"inconclusive: 35.5 µM [inhibitor, single point]"
11,Cc1[nH]c(=O)nc(SCc2ccc(Cl)c(Cl)c2)c1C#N,inactive
12,COCCN(C(=O)Nc1ccccc1)c1ccccc1,inactive
13,Cc1cccnc1NC(=O)c1ccc([N+](=O)[O-])o1,inactive
14,C=CCN(c1ccccc1)S(=O)(=O)c1cccc(C(=O)NCC(c2ccccc2OC)N2CCCC2)c1 (stereo not given),"inconclusive: 11.2 µM [inhibitor, partial curve, poor fit]"
15,Cc1ccc(NC(=O)CCC(=O)N/N=C/c2ccco2)c(C)c1,"inconclusive: 5.17 µM [activator, full curve, poor fit]"
16,O=C1c2ccccc2NC2(CCCCC2)N1c1ccc(O)cc1,inactive
17,COc1ccc(S(=O)(=O)c2c(O)c(C)cc(NS(=O)(=O)c3ccc(Cl)cc3)c2C(C)C)cc1,"inconclusive: 11.2 µM [inhibitor, partial curve, poor fit]"
18,COc1ccc(C2N(C(=O)CN3CCCC3)CCCN2S(=O)(=O)c2ccccc2)cc1 (stereo not given),"inconclusive: 35.5 µM [inhibitor, single point]"
19,O=C(CCN1CCCCC1)Nc1ccc(Br)cc1,"inconclusive: 23.1 µM [inhibitor, partial curve]"
20,COc1cc2cc(/C=C/C(=O)c3ccco3)c(Cl)nc2cc1OC,"inconclusive: 10.3 µM [inhibitor, partial curve, poor fit]"
21,COCC(C)n1c(-c2ccc3c(c2)NC(=O)CO3)csc1=Nc1ccc(OC(F)F)cc1 (stereo not given),"inconclusive: 10.3 µM [inhibitor, partial curve] and inconclusive: 10 µM [inhibitor, partial curve, poor fit]"
22,COc1ccc(OC)c2sc(N3CCN(c4ccccc4)CC3)nc12,inactive
23,Cc1ccc2c(C)c(C(=O)N(Cc3ccc(F)cc3)C3CCS(=O)(=O)C3)oc2c1 (stereo not given),"inconclusive: 35.5 µM [inhibitor, single point]"
24,CCNc1oc(COc2cccc(C)c2)nc1C#N,"inconclusive: 6.31 µM [inhibitor, single point]"

row,Compound,Potency
1,COc1ccc(-c2noc(-c3ccc(N4CCN(C)CC4)c([N+](=O)[O-])c3)n2)cc1,inactive
2,O=P(Cc1cccc[n+]1[O-])(c1ccccc1)c1ccccc1,"inconclusive: 2.59 µM [activator, partial curve, poor fit]"
3,CC[N+](CC)(CC#Cc1ccccc1)CC(=O)c1ccc(Cl)cc1,"inconclusive: 6.31 µM [inhibitor, partial curve, poor fit]"
4,Cc1ccc(S(=O)(=O)N2CCOCC2)cc1NC(=O)CN1CCC(Cc2ccccc2)CC1,"inconclusive: 10 µM [inhibitor, partial curve, poor fit]"
5,CS(=O)(=O)N1CCN(c2ccccc2NC(=O)c2ccc(-c3ccc(Cl)cc3Cl)o2)CC1,"inconclusive: 12.6 µM [inhibitor, partial curve]"
6,Nc1nn(-c2ccccc2)c(N)c1N=Nc1ccccc1,"inconclusive: 6.51 µM [inhibitor, partial curve, poor fit]"
7,O=C(Cc1csc(N2CCOCC2)n1)N/N=C/c1cccc(O)c1,inactive
8,COc1cc(OC)cc(C(=O)NCC(=O)N2CCC(C)CC2)c1,"inconclusive: 12.6 µM [activator, single point]"
9,COc1ccc(CCN(C(=O)c2snc(C(N)=O)c2N)C(C(=O)NCC2CCCO2)c2ccc(F)cc2)cc1OC (stereo not given),inactive
10,CC(C)(C)c1ccc(OCCNCc2ccccc2)cc1,"inconclusive: 1.12 µM [activator, single point]"
11,CCC1CCCCN1S(=O)(=O)c1ccc(C(=O)Nc2nnc(C3=COCCO3)o2)cc1 (stereo not given),"inconclusive: 39.8 µM [inhibitor, partial curve, poor fit]"
12,O=C(COC(=O)/C=C/c1ccc(S(=O)(=O)N2CCOCC2)cc1)NCc1ccc2c(c1)OCO2,"inconclusive: 5.62 µM [inhibitor, single point]"
13,CCOC(=O)C(Cc1c[nH]c2ccccc12)NC(=O)c1ccco1 (stereo not given),"inconclusive: 3.16 µM [activator, full curve, poor fit]"
14,CCOC(=O)C1(C)NC(c2ccccc2F)C2C(=O)N(CC)C(=O)C21 (stereo not given),"inconclusive: 1.41 µM [inhibitor, single point]"
15,CCCN(CC(=O)Nc1ccccc1C)C(=O)C1CC(=O)N(c2ccccc2OCC)C1 (stereo not given),inactive
16,O=C(c1cccc(-c2nnc(-c3ccccc3)o2)c1)N1CCCCC1,inactive
17,CC1(c2ccccc2)NC(=O)N(CC(=O)NCCC2=CCCCC2)C1=O (stereo not given),inactive
18,CCn1nnc(NC(=O)c2cc3ccccc3o2)n1,"inconclusive: 10.3 µM [activator, partial curve, poor fit]"
19,Cc1cc(=O)n2nc(N3CCCC(C(=O)NC4CCC(C)CC4)C3)sc2n1 (stereo not given),inactive
20,O=C(Nc1nccs1)c1ccc(-c2ccc(F)cc2)o1,inactive
21,CCOC(=O)N1CCN(c2nnc(-c3ccc(C)cc3)c3ccccc23)CC1,"inconclusive: 35.5 µM [inhibitor, single point]"
22,O=C1C2C(c3ccccc3)(C(=O)N1c1ccc(Cl)cc1)C2(c1ccccc1)c1ccccc1 (stereo not given),"inconclusive: 10 µM [inhibitor, partial curve, poor fit]"
